Measured values published in publication doi:10.1101/2023.04.14.536856.
No constants are given. Whether binding was seen depends on the method and setting. Binding seen in cells or lysates may run through a third protein. Binding can be weak; no strength is given. Sequences can lack the tags named with a protein.

Experiments:
Assay in all cases: split reporter
[1] = target: T1, NF-YC5-nLUC (Arabidopsis) (UniProt Q9FGP6)
T1 sequence: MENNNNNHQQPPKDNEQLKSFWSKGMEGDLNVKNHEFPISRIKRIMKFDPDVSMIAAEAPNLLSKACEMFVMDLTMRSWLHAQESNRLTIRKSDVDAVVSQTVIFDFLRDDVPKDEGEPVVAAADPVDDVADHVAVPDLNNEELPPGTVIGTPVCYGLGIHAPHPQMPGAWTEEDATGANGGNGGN

[2] = target: T2, NF-YC8-nLUC (Arabidopsis) (UniProt Q4PSE2)
T2 sequence: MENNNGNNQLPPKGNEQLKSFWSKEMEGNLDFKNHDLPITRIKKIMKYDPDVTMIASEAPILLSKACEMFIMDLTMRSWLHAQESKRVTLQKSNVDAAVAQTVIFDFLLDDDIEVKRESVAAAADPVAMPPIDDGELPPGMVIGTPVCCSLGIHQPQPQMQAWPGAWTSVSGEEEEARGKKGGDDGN

[3] = target: T3, NF-YC7-nLUC (Arabidopsis) (UniProt Q9FGP8)
T3 sequence: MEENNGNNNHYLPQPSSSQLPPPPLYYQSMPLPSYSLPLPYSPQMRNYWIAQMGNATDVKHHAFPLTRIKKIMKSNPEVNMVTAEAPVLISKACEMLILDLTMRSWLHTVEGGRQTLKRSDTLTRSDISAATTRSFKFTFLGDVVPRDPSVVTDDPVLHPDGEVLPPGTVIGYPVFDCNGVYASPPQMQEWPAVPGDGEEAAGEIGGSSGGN

binding [1]	binding [2]	binding [3]	Substance
binds	binds	binds	LRB1
binds	binds	binds	LRB2
